## Screening data, single-dose tests

Amino acid sequences for entries named in this document (tags omitted). Residues count along the entry.
UniProt Q8IDJ8, 1-583: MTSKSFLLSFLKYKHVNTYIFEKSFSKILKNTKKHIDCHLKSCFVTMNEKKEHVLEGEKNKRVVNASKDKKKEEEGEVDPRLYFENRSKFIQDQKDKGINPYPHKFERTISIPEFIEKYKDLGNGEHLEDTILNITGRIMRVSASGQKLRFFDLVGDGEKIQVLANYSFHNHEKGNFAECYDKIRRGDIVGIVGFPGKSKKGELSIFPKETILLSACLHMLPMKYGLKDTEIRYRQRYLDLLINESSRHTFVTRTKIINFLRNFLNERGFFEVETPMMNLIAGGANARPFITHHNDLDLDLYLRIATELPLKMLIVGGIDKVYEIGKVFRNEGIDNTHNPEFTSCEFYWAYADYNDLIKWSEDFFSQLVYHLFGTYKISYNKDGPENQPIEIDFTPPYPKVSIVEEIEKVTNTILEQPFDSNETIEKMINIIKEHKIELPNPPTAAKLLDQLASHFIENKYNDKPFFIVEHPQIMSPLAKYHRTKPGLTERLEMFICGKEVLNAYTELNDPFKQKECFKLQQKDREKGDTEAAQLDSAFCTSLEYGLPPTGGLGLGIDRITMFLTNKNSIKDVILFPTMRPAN
UniProt P9WPC5, whole entry: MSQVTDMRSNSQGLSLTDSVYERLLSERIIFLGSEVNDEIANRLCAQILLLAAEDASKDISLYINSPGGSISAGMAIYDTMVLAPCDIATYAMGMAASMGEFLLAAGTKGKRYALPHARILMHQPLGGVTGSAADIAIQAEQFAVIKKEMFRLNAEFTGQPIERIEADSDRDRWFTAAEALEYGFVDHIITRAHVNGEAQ
UniProt P9WPC3, whole entry partner: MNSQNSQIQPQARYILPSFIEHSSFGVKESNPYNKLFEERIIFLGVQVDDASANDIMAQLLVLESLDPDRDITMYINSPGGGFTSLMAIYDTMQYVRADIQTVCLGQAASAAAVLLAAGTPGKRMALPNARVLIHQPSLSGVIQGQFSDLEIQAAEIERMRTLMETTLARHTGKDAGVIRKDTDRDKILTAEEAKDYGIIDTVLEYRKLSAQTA
UniProt P9WFT3, whole entry: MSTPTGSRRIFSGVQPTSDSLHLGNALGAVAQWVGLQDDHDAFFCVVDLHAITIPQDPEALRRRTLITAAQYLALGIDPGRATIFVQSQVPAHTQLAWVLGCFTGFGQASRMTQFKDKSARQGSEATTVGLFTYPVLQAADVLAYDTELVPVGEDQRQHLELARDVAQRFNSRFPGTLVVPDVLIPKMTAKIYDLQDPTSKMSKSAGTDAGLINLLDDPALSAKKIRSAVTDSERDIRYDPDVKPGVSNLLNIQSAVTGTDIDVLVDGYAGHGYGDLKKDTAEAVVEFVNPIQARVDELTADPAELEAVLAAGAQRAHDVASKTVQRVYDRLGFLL

PfKRS1: 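Enzyme assay of the cytosolic lysyl-tRNA synthetase in 384-well plates, read by luminescence. Target: Lysine-tRNA ligase, Plasmodium falciparum 3D7 (UniProt Q8IDJ8). Compounds at 30 µM. Higher reads as stronger inhibition, judged from the few compounds that gave an IC50. About 69,000 compounds were tested under these conditions; 0.071% (about 49) showed 50% or more at least once.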
ClpP1P2: 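ClpP1P2, Mycobacterium tuberculosis (UniProt P9WPC5 and UniProt P9WPC3). Protease assay of ClpP1P2, read by the AMC dye that it sets free. Tested at 50 µM. Direction is inferred from only a few compounds that gave an IC50; most scored high, so higher reads as stronger inhibition. Most other retested compounds had strongly negative values. Of about 69,000 compounds tested this way, about 10 (0.015%) reached 50% or more in at least one test.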
MtTrpRS: 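Tryptophan-tRNA ligase, Mycobacterium tuberculosis (UniProt P9WFT3). Enzyme assay of tryptophanyl-tRNA synthetase; the read-out is not stated. Compounds at 10 µM. Higher most likely means stronger inhibition; the record gives no direction and few retests gave an IC50. About 65,000 compounds were tested under these conditions; 0.098% (about 64) showed 50% or more at least once.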

Each number is a percent effect as filed.
How 0% and 100% were set is not recorded. Most values in the screen are low, and negative values occur.
This is an unselected part of the compounds tested.
A dash means the value is not listed here; it may have been measured.

structure	PfKRS1	ClpP1P2	MtTrpRS
CN(C)C(=O)Cc1ccc(-c2cccc3c2CCNC3)cc1	0.06793	1.249	3.537
CC(C)Cc1cc(C(=O)NCC(O)CN2CCCCCC2)on1 (centres unmarked)	1.246	-5.791	8.165
O=C(c1ccnnc1)N1CC[C@]2(C[C@H](Oc3ncccc3F)CO2)C1	5.088	-16.84	-1.652
Cn1nc(C2CCN(CC(=O)NC3CC3)CC2)n(-c2ccccc2)c1=O	3.092	2.131	-1.029
O=C(O)COCC(=O)NC1CC2(CCCCC2)Oc2ccccc21 (centres unmarked)	1.16	-6.356	12.58
COc1ncc(C2(O)CCN(Cc3cc(F)cc(F)c3)CC2)c(OC)n1	1.265	-3.335	-
COCC(O)CN(C)c1ccnc2cc(Br)ccc12 (centres unmarked)	-2.6	1.701	1.872
COCc1nnn2c1CN(C(=O)c1c[nH]cn1)CCC2	-0.2937	4.388	-1.481
CC(C)N(C)CCNC(=O)NCc1ccccc1-n1cccn1	3.879	-5.265	1.763
Cc1ccc(NC(=O)c2nc3c(s2)CCCN3C(C)C)cn1	6.823	1.611	4.026
CN(Cc1ncnn1C)C(=O)Nc1ccc(OC(F)F)cc1	-0.441	-9.229	0.3549
Cc1ccc(NS(=O)(=O)c2cccc(C#N)c2)c(CN(C)C)c1	2.259	-0.1864	-1.784
COc1cc(C2Nc3cc(Cl)ccc3C3=NCCN32)cc(OC)c1OC (centres unmarked)	2.305	-43.54	-
O=C(c1cnccn1)N1C[C@@H]2CC[C@H](C1)N(C(=O)CCc1ccsc1)C2	5.258	-10.78	0.942
O=C(CC1CC1)N1CCC2(CC1)CN(c1ncc(F)cn1)CCO2	1.963	-8.011	-3.412
O=C(NCc1ccco1)[C@@H]1CCO[C@@H]2CCN(c3ncccn3)C[C@H]21	8.244	-3.548	6.035
O=S(=O)(C1CC1)N1C[C@@H]2CN(Cc3ccoc3)CCO[C@@H]2C1	2.092	2.856	-2.422
Cc1ccccc1N1CCCN(C(=O)CCc2nncn2C)CC1	10.68	9.933	1.088
CCN1CCCC1CNC(=O)Cc1c(-c2ccc(Cl)cc2)n[nH]c1C (centres unmarked)	-2.587	-7.386	0
CNC(=O)c1cccc(CN2CCC(N(C)Cc3nnc(C)o3)C2)c1 (centres unmarked)	-0.3653	-6.897	-0.6353
Cn1nnc2c1CCN(Cc1ccccc1)C2COCC1CC1 (centres unmarked)	2.943	2.591	-7.225
c1ccc(CCCC2CN(Cc3ncc[nH]3)CCO2)cc1 (centres unmarked)	2.515	-39.87	0.7831
COc1ccc(C2=CNC(C(F)(F)F)=CC2N)cc1 (centres unmarked)	3.016	-0.4266	-
COc1ccc(CN2CCC[C@H]2c2nc(-c3cncnc3N)no2)cc1	-4.691	-2.775	7.36
CN(C)S(=O)(=O)c1ccc(-c2nc(C#N)c(NC3CC3)o2)o1	1.483	-111	-0.5693
Cc1ccc(S(=O)(=O)N2CCN(CCCn3ccnc3)CC2)cc1	4.794	-4.992	-1.143
CN1CCCc2sc(C(=O)NCc3cccnc3)nc21	8.124	-18.14	4.195
C=C(C)COc1cccc(C(=O)N(C)C(C)c2c(C)n[nH]c2C)c1 (centres unmarked)	5.415	-11.43	-0.7874
CC(C)C[C@H](NC(=O)CNC(=O)OC(C)(C)C)C(=O)OC(C)(C)C	1.044	-9.115	4.128
CCCOC1CCCN(C(=O)c2cc(CN(CC)CC)c(CC)o2)C1 (centres unmarked)	3.283	-4.762	5.325
COc1cnc(C2(O)CCN(C(=O)c3ccncc3)CC2)c(OC)n1	0.3445	-0.6482	0.7525
CC(Cn1cccn1)NC(=O)CCc1ccc(S(N)(=O)=O)cc1 (centres unmarked)	6.927	7.333	-1.329
CC(=O)N1CCOC(c2ccnc(N(C)C)n2)C1 (centres unmarked)	0.9659	-14.14	0.3771
COCC(=O)NCc1cc(=O)n2c(n1)CN(C)CCC2	2.587	-12.63	-
C=C(C)CN1CCC(NC(=O)Nc2ccc(F)c(C(=O)NC)c2)CC1	-2.735	-2.581	9.877
CCCC1CN(CCOC)C(=O)c2cccnc2O1 (centres unmarked)	7.118	-4.104	-
COc1cccc(NC(=O)CN2CCN(S(C)(=O)=O)CC2)c1	-0.3185	-1.772	-2.75
Cn1c(C(F)(F)F)nn(CCNC(=O)Nc2ccccc2Cl)c1=O	-1.197	-5.109	1.72
COc1ccc2c(c1)C(=O)NC1(CC2)CCN(Cc2ccc(F)cc2)C1 (centres unmarked)	0.4126	-1.737	-7.74
Cc1nnc(N2CCCC3(CN(Cc4nccs4)CCO3)C2)o1 (centres unmarked)	-3.955	-25.98	2.853

The first 5 entries again:

{"structure": "CN(C)C(=O)Cc1ccc(-c2cccc3c2CCNC3)cc1", "PfKRS1": 0.06793, "ClpP1P2": 1.249, "MtTrpRS": 3.537}
{"structure": "CC(C)Cc1cc(C(=O)NCC(O)CN2CCCCCC2)on1", "stereo": "centres unmarked", "PfKRS1": 1.246, "ClpP1P2": -5.791, "MtTrpRS": 8.165}
{"structure": "O=C(c1ccnnc1)N1CC[C@]2(C[C@H](Oc3ncccc3F)CO2)C1", "PfKRS1": 5.088, "ClpP1P2": -16.84, "MtTrpRS": -1.652}
{"structure": "Cn1nc(C2CCN(CC(=O)NC3CC3)CC2)n(-c2ccccc2)c1=O", "PfKRS1": 3.092, "ClpP1P2": 2.131, "MtTrpRS": -1.029}
{"structure": "O=C(O)COCC(=O)NC1CC2(CCCCC2)Oc2ccccc21", "stereo": "centres unmarked", "PfKRS1": 1.16, "ClpP1P2": -6.356, "MtTrpRS": 12.58}

The values are deposited in ChEMBL (CHEMBL3988442, “University of Dundee, Small-Polar-MMV Screening Library” (2021)).